In patent publication US4468403A, “Analgesic substituted piperidylidene-2-sulfon(cyan)amide derivatives” (priority 1982, dated 1984):

Assay type: in vivo, male Swiss albino mice
Conditions: subcutaneous
Experimental: The percent change is calculated according to the following equation: % change=100- (no. of writhes in treated group/no. of writhes in control group)×100.

CN1CC[C@]23c4c5ccc(O)c4O[C@H]2[C@@H](O)C=C[C@H]3[C@H]1C5.O=S(=O)(O)O [Morphine Sulfate, reference compound]
Analgesic action, inhibition action on phenylquinone writhing: dose giving 50 % inhibition (30 min before phenyl-p-benzoquinone, dose with 50 % inhibition): 0.038 mg/kg | Analgesic action, inhibition action on phenylquinone writhing, % inhibition (at the dose listed for the substance under E1): 50%
